# Primary screen of a compound library

By UniProt entry, the sequences of proteins in these tests, tags left out.
UniProt E9BF75, entry or part of it: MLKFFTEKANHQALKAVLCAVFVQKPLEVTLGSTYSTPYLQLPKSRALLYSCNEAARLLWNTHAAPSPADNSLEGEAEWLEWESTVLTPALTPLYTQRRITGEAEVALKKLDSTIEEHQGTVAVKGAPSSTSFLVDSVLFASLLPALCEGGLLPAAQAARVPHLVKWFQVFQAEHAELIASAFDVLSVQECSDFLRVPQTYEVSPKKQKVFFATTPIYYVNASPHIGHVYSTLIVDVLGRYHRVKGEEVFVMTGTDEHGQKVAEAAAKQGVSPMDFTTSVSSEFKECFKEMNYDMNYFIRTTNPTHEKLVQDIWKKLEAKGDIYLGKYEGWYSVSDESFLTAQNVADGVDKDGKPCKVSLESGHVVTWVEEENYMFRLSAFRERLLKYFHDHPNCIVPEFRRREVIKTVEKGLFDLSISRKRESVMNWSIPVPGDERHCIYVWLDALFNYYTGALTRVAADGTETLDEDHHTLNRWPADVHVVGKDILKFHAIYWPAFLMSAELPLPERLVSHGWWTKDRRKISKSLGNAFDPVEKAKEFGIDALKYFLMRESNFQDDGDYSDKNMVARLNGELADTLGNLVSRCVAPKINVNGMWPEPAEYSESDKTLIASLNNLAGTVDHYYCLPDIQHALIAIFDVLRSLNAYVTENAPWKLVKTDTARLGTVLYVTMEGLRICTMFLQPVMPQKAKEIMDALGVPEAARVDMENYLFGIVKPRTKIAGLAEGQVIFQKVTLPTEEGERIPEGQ

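Methionyl-tRNA synthetase (putative), Leishmania donovani (UniProt E9BF75). Primary screen of methionyl-tRNA synthetase; the read-out is not stated. The test concentration is not given. Values are per cent inhibition. Of about 68,000 compounds tested this way, about 24 (0.035%) reached 50% or more in at least one test.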

Results are percentages, as filed.
The record does not define 0% and 100%; most values in the screen are far below 50% and negative numbers occur (in some assays of this library far below -100).
Compounds were drawn at random from those tested, without regard to their results.

| # | compound | Inhibition |
|---|---|---|
| 1 | `COCc1nc(C(=O)N2CCCC2c2cc(C)no2)cs1` (configuration not stated) | 20.34 |
| 2 | `CN(C)CCN(C)c1nc(CCc2ccccc2)nc2c1cnn2C` | 8.904 |
| 3 | `COc1ccc(CN(C)CC2CCCN2c2cccnn2)cc1F` (configuration not stated) | 0.6944 |
| 4 | `OCC(CO)Nc1nc(C(F)F)nc2ccccc12` | 10.76 |
| 5 | `Cn1cc(C(=O)NC2CCCC2)c(-c2cccnc2)n1` | 17.96 |
| 6 | `Cn1cc(CN2CCCC(O)C2)c(-c2ccccc2F)n1` (configuration not stated) | 8.672 |
| 7 | `CC(C)NC(=O)COc1ccc(-c2nc(C(C)C)no2)cc1` | 14.71 |
| 8 | `Cc1cnn(CCC(=O)N2CCCC(c3nc(C)c(C)s3)C2)c1` (configuration not stated) | 18.71 |
| 9 | `O=C(c1ccoc1)N1CCCn2cnc(COCC3CC3)c2C1` | 8.418 |
| 10 | `CCCc1ccc2oc(C(=O)N3CCC(O)CC3)c(C)c2c1` | 9.779 |
| 11 | `CC(C)C(=O)N1CCC12CCCN(C(=O)c1ccccc1)C2` (configuration not stated) | 8.759 |
| 12 | `OCCNc1cc(N2CCN(Cc3ccccc3)C(CCO)C2)ncn1` (configuration not stated) | 11.42 |
| 13 | `CC(c1ccco1)N(C)Cc1cccc(C(=O)Nc2nccn2C)c1` (configuration not stated) | 7.068 |
| 14 | `COc1cccc(CNc2cnn(CC(F)F)c2)c1` | 11.62 |
| 15 | `CCCc1nnc(N2CCN(c3cccc(C)c3C)CC2)o1` | -10.6 |
| 16 | `COC(=O)c1cccc(C(=O)N2CCN(c3cc(Cl)ccc3C)CC2)n1` | 12.96 |
| 17 | `CCN(Cc1cccnc1)CC1(C)Cc2c(N)nc(N)nc2O1` (configuration not stated) | 13.35 |
| 18 | `CCN1CCC(CC(=O)N2CCn3cccc3C2c2cccnc2)CC1` (configuration not stated) | 15.16 |
| 19 | `CCOCn1cc(NC(=O)C2CCN(S(C)(=O)=O)CC2)cn1` | 14.86 |
| 20 | `CC(c1ccncn1)N(C)Cc1cc(O)c2cc(F)ccc2n1` (configuration not stated) | 12.14 |
| 21 | `O=C(c1cnc(-c2ccccn2)s1)N1CCCC1Cn1cccn1` (configuration not stated) | 13.68 |
| 22 | `O=C(NCc1cccs1)[C@@H]1CC[C@@H]2[C@@H](CCN2C2CCOCC2)O1` | 20.46 |
| 23 | `O=C1NCc2ccc(NC(=O)C3CCCN3c3nccs3)cc21` (configuration not stated) | 11.04 |
| 24 | `CCc1nnc(C(C)N2CCC(NC(=O)C3CCCCC3)CC2)o1` (configuration not stated) | 22.22 |
| 25 | `N#Cc1cccc(N2CCC3(CCC(=O)N(CCCO)C3)CC2)n1` | 8.824 |
| 26 | `OCC1CCCN1c1cc(NCCNc2ccccn2)ncn1` (configuration not stated) | 6.404 |
| 27 | `COc1ccc(F)cc1C(=O)N1CCC2(CCC(=O)N(C(C)C)C2)CC1` | 13.04 |
| 28 | `CSC(C)(C)CNC(=O)NCCC1CCN(C)CC1` | 15.61 |
| 29 | `COc1cc(-c2nc3c([nH]2)CCCNC3=O)ccc1OC(C)C` | 18.05 |
| 30 | `Cc1cc(CN2C[C@H]3CCC[C@@]3(COCC(=O)N3CCCC3)C2)no1` | 15.33 |
| 31 | `CCCNC(=O)NCc1ccccc1NS(=O)(=O)c1ccccc1` | 3.855 |
| 32 | `O=C(Nc1ccc(CC(=O)N2CCCC2)cc1)NC1CC1` | 14.36 |
| 33 | `CCOc1ccc(NC(=O)NC2CCc3[nH]ncc3C2)cn1` (configuration not stated) | 12.93 |
| 34 | `CSCC(=O)NC1(c2cccc(Cl)c2)CC1` | -8.467 |
| 35 | `CCc1nc(CN2CCN(C(=O)C3(C#N)CCCCC3)CC2)cs1` | 10.61 |
| 36 | `CCn1nc2c(cc1=O)CN(Cc1nc3ccccc3o1)CC2` | 10.63 |
| 37 | `COc1cccc(N2CCN(C(=O)c3ccc(=O)n(C)c3)CC2)c1` | 13.92 |
| 38 | `Cn1c(CCC(=O)N2CCC3(CCCO3)CC2)nc2cccnc21` | 16.09 |
| 39 | `CCN(CC1CCCO1)C(=O)NCCNC(=O)c1ccccc1F` (configuration not stated) | 4.954 |
| 40 | `CS(=O)(=O)NCCC(=O)Nc1ccccc1N1CCc2ccccc21` | -1.863 |
| 41 | `Cc1cc(-c2cnc(C3CC3)nc2CN(C)C(=O)c2ccccn2)on1` | 21.29 |
| 42 | `C[C@@H]1CN(C2Cc3ccccc3C2)CC[C@@]1(O)C1CCOCC1` | 14.4 |
| 43 | `CC(C)(CNc1ccc(C#N)c(C(F)(F)F)c1)C(N)=O` | 12.53 |
| 44 | `O=c1[nH]c2nc(N3CCOCC3)ncc2c(=O)n1-c1cccc(F)c1` | 11.33 |
| 45 | `CC(c1cccc(S(N)(=O)=O)c1)N(C)CCCOc1ccccc1` (configuration not stated) | 12.57 |
| 46 | `CCOC(=O)c1ccc(CNC(=O)c2ccncc2Cl)o1` | 8.659 |
| 47 | `Cc1cccc(OCCC(=O)NCC2CN(C)CCO2)c1C` (configuration not stated) | 17.71 |
| 48 | `CCOc1ccc(C(=O)N(CCOC)Cc2c(C)nn(CC)c2C)o1` | -0.7792 |
| 49 | `CN(C)CCNC(=O)c1cc2n(n1)CCN(C(=O)CC(C)(C)C)C2` | -2.128 |
| 50 | `OCCOc1nc(-c2ccccc2Cl)no1` | 12.32 |
| 51 | `CCOCC1CN(C(=O)N(C)C)Cc2nnn(CC3CC3)c21` (configuration not stated) | 13.77 |
| 52 | `CC(C)c1nnc(CN2CC(n3cccn3)C2)o1` | 7.627 |
| 53 | `Cn1ccnc1CN1CC2(CCN(Cc3ccncc3)C2)C1` | 16.3 |
| 54 | `O=C(c1cnccn1)N1CCc2c(COCC3CC3)cncc2C1` | 18.1 |
| 55 | `COCCC1CCCCN1C(=O)c1coc(COc2ccccc2F)n1` (configuration not stated) | 17.78 |
| 56 | `CCNc1cc2c(nn1)CCN(C(=O)c1ccc(C(N)=O)cc1)C2` | 15.3 |
| 57 | `Cc1cnc(N2CCc3c(CNc4ccnc(C)n4)cncc3C2)nc1` | -0.5168 |
| 58 | `O=C(Cc1nc(-c2ccncc2)n[nH]1)NCCCN1CCOCC1` | 12.38 |
| 59 | `COCC(C)Nc1ccc(-c2nc(Cc3ccc(F)cc3)no2)cn1` (configuration not stated) | 9.51 |
| 60 | `CCc1nc(CN2CCCN(C(=O)CCOC(C)C)CC2)cs1` | 18.67 |
| 61 | `CCCC(=O)N1CCc2nc3cc(OC)c(OC)cc3c(=O)n2CC1` | 9.647 |
| 62 | `COc1cc(C(C)=O)ccc1OCC(=O)N(CC(C)C#N)C1CC1` (configuration not stated) | 13.71 |
| 63 | `Cc1cccc(CN2CCOC3(COCCN(CCN(C)C)C3)C2)n1` (configuration not stated) | 9.341 |
| 64 | `O=C1NCCN(CC2CC2)C12CCN(Cc1ccco1)CC2` | -0.4292 |
| 65 | `COC(=O)CN1CCC(C(=O)c2cc(F)ccc2F)CC1` | 24.02 |
| 66 | `O=C(Nc1cnn(CC(=O)N2CCCO2)c1)c1ccccc1` | 8.871 |
| 67 | `C=C(C)CNCC1(O)CCCN(Cc2ccc(F)c(F)c2)C1=O` (configuration not stated) | 17.17 |
| 68 | `CN1CCOC(C(=O)N2CCCC(C)(C)CC2)C1` (configuration not stated) | 10.68 |
| 69 | `CC(=O)N1CCC(NCc2cccnc2N(C)Cc2ccccc2)CC1` | 17.01 |
| 70 | `CC(NC(=O)Nc1nccs1)c1ccncc1` (configuration not stated) | 10 |
| 71 | `Cc1cn(CC(=O)Nc2cc(C(C)(C)C)nn2C)cn1` | -8.184 |
| 72 | `N#Cc1ccc(SCCC(=O)O)cc1` | 9.97 |
| 73 | `O=C1CCCN1CCCN1CCCCC1Cn1cncn1` (configuration not stated) | 8.152 |
| 74 | `CC(=O)c1ccccc1-c1cc(C(=O)O)cc(S(=O)(=O)NC(C)C)c1` | 6.406 |
| 75 | `CCn1nccc1CN(C)c1nc(N)nc2c1nc(C)n2C` | -25.56 |
| 76 | `COCc1cc(N2CCc3onc(-c4cccc(OC)c4)c3C2)ncn1` | 12.53 |
| 77 | `Cc1cccc(-c2nnc(C(C)N3CCn4c(C)nnc4C3)o2)c1` (configuration not stated) | 10.14 |
| 78 | `Cc1cnn(CCCNCc2csc(COc3ccccc3)n2)c1` | 19.9 |
| 79 | `COc1ccc(Cl)cc1NCC(=O)N(Cc1ccccn1)C1CC1` | 4.658 |
| 80 | `c1cc(CN2CCCC(c3ccnc4nccn34)C2)ccn1` (configuration not stated) | 16.2 |
| 81 | `COCCNC(=O)[C@@]12CCO[C@@H]1CCN(Cc1c(C)noc1C)C2` | 12.45 |
| 82 | `CN(C)c1ncccc1CNc1cc(N2CCCC2CO)ncn1` (configuration not stated) | 11.45 |
| 83 | `Cc1c(C)n(Cc2ccncc2)c2nc3c(c(N)c12)CCCC3` | 13.64 |
| 84 | `O=c1ccc(-n2ccnc2)nn1CCNS(=O)(=O)c1ccccc1Cl` | 15.11 |

Some entries from above, unchanged:

compound,Inhibition
CCOCC1CN(C(=O)N(C)C)Cc2nnn(CC3CC3)c21 (configuration not stated),13.77
CCn1nc2c(cc1=O)CN(Cc1nc3ccccc3o1)CC2,10.63
CCCc1ccc2oc(C(=O)N3CCC(O)CC3)c(C)c2c1,9.779
Cc1cc(-c2cnc(C3CC3)nc2CN(C)C(=O)c2ccccn2)on1,21.29
CCOc1ccc(NC(=O)NC2CCc3[nH]ncc3C2)cn1 (configuration not stated),12.93
CN1CCOC(C(=O)N2CCCC(C)(C)CC2)C1 (configuration not stated),10.68
CCN(Cc1cccnc1)CC1(C)Cc2c(N)nc(N)nc2O1 (configuration not stated),13.35
CC(c1ccco1)N(C)Cc1cccc(C(=O)Nc2nccn2C)c1 (configuration not stated),7.068
O=C(c1cnc(-c2ccccn2)s1)N1CCCC1Cn1cccn1 (configuration not stated),13.68
Cc1cc(CN2C[C@H]3CCC[C@@]3(COCC(=O)N3CCCC3)C2)no1,15.33

The values are deposited in ChEMBL (CHEMBL3988442, “University of Dundee, Small-Polar-MMV Screening Library” (2021)).